From paper doi:10.1101/2025.09.16.676457 (bioRxiv, 2025)
These are yes or no findings as the source states them, for the method shown. Binding seen in cells or lysates may run through a third protein. A result given as binding can be weak or reduced; the word gives no strength.

By UniProt entry, the sequences of proteins in these tests, tags left out.
UniProt P32121: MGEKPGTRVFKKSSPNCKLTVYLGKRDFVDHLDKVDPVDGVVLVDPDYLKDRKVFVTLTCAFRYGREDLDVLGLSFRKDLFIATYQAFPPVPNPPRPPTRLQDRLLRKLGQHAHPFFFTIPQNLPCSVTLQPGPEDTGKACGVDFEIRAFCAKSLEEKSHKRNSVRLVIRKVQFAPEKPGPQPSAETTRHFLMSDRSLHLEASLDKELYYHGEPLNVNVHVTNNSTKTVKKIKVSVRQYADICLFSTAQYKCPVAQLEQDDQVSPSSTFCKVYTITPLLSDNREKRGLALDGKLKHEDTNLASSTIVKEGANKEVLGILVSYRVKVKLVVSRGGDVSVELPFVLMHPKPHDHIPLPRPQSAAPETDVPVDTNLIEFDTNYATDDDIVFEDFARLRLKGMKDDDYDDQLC

Biological target: Lc-GPR25-LgBiT (Latimeria chalumnae (coelacanth)) (UniProt H3AQL3)
Test: split reporter

## SmBiT-ARRB2 (from UniProt P32121 1-409)
  binding: binds
